From PMC9532951, “Identification and characterization of a novel SNAT2 (SLC38A2) inhibitor reveals synergy with glucose transport inhibition in cancer cells” (Frontiers in Pharmacology, 2022)
Several values for one entry are separate records, joined by “and”; a condition that tells them apart may be missing. Identical values can stand only once. Further values from the same series stand in other lists.

What was measured:
SNAT2 = target: T1, SNAT2 (Homo sapiens, UniProt Q96QD8); test: FMP assay with betaine in amino acid depleted SKOV3 cells; assay type: cell-based; set-up: SKOV3 cells were pre-incubated in starvation medium for 15 h to induce SNAT2 expression; endogenous in cells; host or cells: SKOV3 ovarian cancer cells, amino acid depleted for 15 h
T1 sequence (Q96QD8 1-506): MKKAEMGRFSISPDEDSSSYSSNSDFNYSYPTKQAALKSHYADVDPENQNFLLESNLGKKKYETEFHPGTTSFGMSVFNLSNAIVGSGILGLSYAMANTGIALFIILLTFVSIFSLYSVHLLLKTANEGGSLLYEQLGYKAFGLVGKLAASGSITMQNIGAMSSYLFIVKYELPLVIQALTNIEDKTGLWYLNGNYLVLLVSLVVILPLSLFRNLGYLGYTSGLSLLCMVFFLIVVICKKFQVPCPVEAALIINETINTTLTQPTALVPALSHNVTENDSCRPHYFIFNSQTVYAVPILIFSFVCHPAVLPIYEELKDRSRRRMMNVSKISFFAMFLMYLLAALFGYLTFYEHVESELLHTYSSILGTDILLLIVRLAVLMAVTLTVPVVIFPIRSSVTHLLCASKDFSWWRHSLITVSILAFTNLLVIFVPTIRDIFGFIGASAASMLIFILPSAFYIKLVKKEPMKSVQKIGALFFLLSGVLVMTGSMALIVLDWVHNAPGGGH
Protocol: The FLIPR Membrane Potential Blue Explorer Kit (Molecular Devices) was used to characterise inhibitors and to optimise a high-throughput compound screen. Cells were seeded at approximately 60,000 cells/well on a 96-well plate and allowed to attach and grow overnight in a cell incubator. The next day, the cells were washed once with mHBSS and incubated in a starvation medium (composed of mHBSS with 1% dialysed heat-inactivated FBS, 23 mM NaHCO3, 10 U/ml penicillin and 10 μg/ml streptomycin) for 24 h. Cells were then washed once with mHBSS and incubated with 50 µl of the mHBSS-resuspended FMP assay dye and 50 µl of mHBSS (with or without inhibitors) and incubated at room temperature for 30 min. The plate was then placed in an EnSpire Multimode plate reader (PerkinElmer) and four sequential measurements of fluorescence were recorded as a baseline reference. […] The excitation wavelength was set to 530 nm and the emission was detected at 565 nm. The Δ fluorescent signal reported in the figures was taken 30 s after substrate addition. After the assay was complete, the liquid content of the plate was carefully removed, and the cell monolayer inspected to ensure it remained intact throughout the course of the assay.

SNAT1 and SNAT2 [1] = target: T2, SNAT1 and SNAT2 (Homo sapiens, UniProt Q9H2H9); test: FMP assay in HCC1806 clones C10 (ASCT2ko) and D126 (ASCT2ko, SNAT2ko); assay type: cell-based; conditions: D126 cells
T2 construct: endogenous in cells; host or cells: HCC1806 clone C10 (ASCT2ko) and clone D126 (ASCT2ko, SNAT2ko), amino acid depleted for 24 h
T2 sequence (Q9H2H9 1-487): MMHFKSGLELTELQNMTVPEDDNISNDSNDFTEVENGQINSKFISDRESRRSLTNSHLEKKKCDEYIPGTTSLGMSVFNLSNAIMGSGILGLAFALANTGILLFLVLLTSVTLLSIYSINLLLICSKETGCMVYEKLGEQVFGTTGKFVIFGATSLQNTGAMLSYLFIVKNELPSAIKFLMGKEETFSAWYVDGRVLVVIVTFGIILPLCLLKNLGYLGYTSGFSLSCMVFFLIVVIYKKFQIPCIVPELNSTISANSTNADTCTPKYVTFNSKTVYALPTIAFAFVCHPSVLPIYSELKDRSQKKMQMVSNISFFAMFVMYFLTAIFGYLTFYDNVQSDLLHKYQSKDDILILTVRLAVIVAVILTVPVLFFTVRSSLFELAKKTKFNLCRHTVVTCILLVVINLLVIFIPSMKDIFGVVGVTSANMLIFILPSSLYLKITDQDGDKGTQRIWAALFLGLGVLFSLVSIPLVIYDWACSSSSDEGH
Protocol: (§1) To delete the SNAT2 (SLC38A2) gene in modified HCC1806 cells (clone C10 nullizygous for ASCT2 ([Broer et al., 2019])), the GeneArt CRISPR Nuclease Vector with OFP Reporter Kit (Invitrogen; A21174) was employed and complementary 19–20 bp long single-stranded oligonucleotides with overhangs were designed to produce a guide RNA (gRNA) for the Cas9 nuclease that would target exon 7 of the SNAT2 gene. Colonies were analysed by sequencing using the U6 primer included in the GeneArt CRISPR Nuclease Vector with OFP Reporter kit. Plasmids that contained the correct CRISPR nuclease construct were then used to transfect HCC1806 cells with Lipofectamine 2000 (Invitrogen). Prior to transfection, medium was replaced with 2 ml of fresh DMEM/F-12 (supplemented with 10% heat-inactivated FBS and 2 mM glutamine). Plasmid DNA (4 µg) and 10 µL of Lipofectamine 2000 were incubated separately for 5 min at room temperature in 500 µl of Opti-MEM (Invitrogen) before being combined and incubated for a further 30 min at room temperature. The DNA-Lipofectamine complex was then added to the cells in a dropwise manner and allowed to be absorbed over 6 h at 37°C, after which the medium was renewed with fresh DMEM/F-12. Cells were checked for red fluorescence using an EVOS FL cell imaging system (Thermo Fisher Scientific) 48–72 h post transfection. Subsequently, cells were detached using 0.25% Trypsin EDTA. After harvesting and washing thrice with PBS (pH 7.4), cells were resuspended in PBS (pH 7.4) supplemented with 5 mM glucose and 1% dialysed and heat inactivated FBS and passed through a 100 μm cell strainer. The cell filtrate was then pelleted once more and resuspended in the same buffer. Cells were sorted using an ARIA II FACS machine and individually dispensed into the wells of a 96-well plate. Nullizygous clones were identified using a series of assays including the FLIPR membrane potential assay, western blotting and sequencing.
(§2) The FLIPR Membrane Potential Blue Explorer Kit (Molecular Devices) was used to characterise inhibitors and to optimise a high-throughput compound screen. Cells were seeded at approximately 60,000 cells/well on a 96-well plate and allowed to attach and grow overnight in a cell incubator. […] The plate was then placed in an EnSpire Multimode plate reader (PerkinElmer) and four sequential measurements of fluorescence were recorded as a baseline reference. Immediately after the baseline measurements were taken, 25 µl of 5 mM glutamine dissolved in mHBSS was injected into each well and the plate was shaken orbitally for 5 s before a series of consecutive fluorescence measurements were taken. The excitation wavelength was set to 530 nm and the emission was detected at 565 nm. […]

SNAT1 and SNAT2 [2] = test: as above; assay type: cell-based, human; conditions: C10 cells
Protocol: as §1, §2

C[N+](C)(C)CC(=O)O [Betaine, betaine]
FMP fluorescence trace (Figure 4E) (SNAT2; concentration 0.03, time 0): 36248 and 39601 and 41404
FMP fluorescence trace (Figure 4E) (SNAT2; concentration 0.03, time 15): 36188 and 39472 and 40740
FMP fluorescence trace (Figure 4E) (SNAT2; concentration 0.03, time 30): 36456 and 39343 and 40891
FMP fluorescence trace (Figure 4E) (SNAT2; concentration 0.03, time 105): 39631 and 40948
FMP fluorescence trace (Figure 4E) (SNAT2; concentration 0.03, time 120): 36395 and 40014 and 40781
FMP fluorescence trace (Figure 4E) (SNAT2; concentration 0.03, time 135): 36713 and 39699 and 41060
FMP fluorescence trace (Figure 4E) (SNAT2; concentration 0.03, time -15): 36682 and 39641 and 41234
FMP fluorescence trace (Figure 4E) (SNAT2; concentration 0.03, time -30): 36591 and 39956 and 41198
FMP fluorescence trace (Figure 4E) (SNAT2; concentration 0.1, time 0): 39340 and 42821 and 44257
FMP fluorescence trace (Figure 4E) (SNAT2; concentration 0.1, time 15): 39994 and 43240 and 44695
FMP fluorescence trace (Figure 4E) (SNAT2; concentration 0.1, time 30): 40300 and 43268 and 44511
FMP fluorescence trace (Figure 4E) (SNAT2; concentration 0.1, time 105): 40063 and 43790 and 44920
FMP fluorescence trace (Figure 4E) (SNAT2; concentration 0.1, time 120): 40412 and 43731 and 45066
FMP fluorescence trace (Figure 4E) (SNAT2; concentration 0.1, time 135): 40214 and 43963 and 45148
FMP fluorescence trace (Figure 4E) (SNAT2; concentration 0.1, time -15): 39614 and 43044 and 44530
FMP fluorescence trace (Figure 4E) (SNAT2; concentration 0.1, time -30): 39905 and 43080 and 44482
FMP fluorescence trace (Figure 4E) (SNAT2; concentration 0.3, time 0): 35236 and 50065 and 44763
FMP fluorescence trace (Figure 4E) (SNAT2; concentration 0.3, time 15): 38807 and 54462 and 48245
FMP fluorescence trace (Figure 4E) (SNAT2; concentration 0.3, time 30): 39021 and 54500 and 48475
FMP fluorescence trace (Figure 4E) (SNAT2; concentration 0.3, time 120): 39771 and 55626 and 49234
FMP fluorescence trace (Figure 4E) (SNAT2; concentration 0.3, time 135): 39866 and 55559 and 49279
FMP fluorescence trace (Figure 4E) (SNAT2; concentration 0.3, time -15): 35725 and 50036 and 44815
FMP fluorescence trace (Figure 4E) (SNAT2; concentration 0.3, time -30): 35663 and 50206 and 44692
FMP fluorescence trace (Figure 4E) (SNAT2; concentration 1, time 0): 38616 and 51411 and 46418
FMP fluorescence trace (Figure 4E) (SNAT2; concentration 1, time 15): 51329 and 65920 and 59516
FMP fluorescence trace (Figure 4E) (SNAT2; concentration 1, time 30): 52319 and 66757 and 60235
FMP fluorescence trace (Figure 4E) (SNAT2; concentration 1, time 120): 53418 and 69184 and 62213
FMP fluorescence trace (Figure 4E) (SNAT2; concentration 1, time 135): 53663 and 69622 and 61661
FMP fluorescence trace (Figure 4E) (SNAT2; concentration 1, time -15): 38966 and 51107 and 46816
FMP fluorescence trace (Figure 4E) (SNAT2; concentration 1, time -30): 39015 and 51488 and 46730
FMP fluorescence trace (Figure 4E) (SNAT2; concentration 3, time 0): 39098 and 47301 and 43810
FMP fluorescence trace (Figure 4E) (SNAT2; concentration 3, time 15): 65447 and 77239 and 72609
FMP fluorescence trace (Figure 4E) (SNAT2; concentration 3, time 30): 67878 and 79895 and 74460
FMP fluorescence trace (Figure 4E) (SNAT2; concentration 3, time 120): 71575 and 85498 and 78527
FMP fluorescence trace (Figure 4E) (SNAT2; concentration 3, time 135): 71691 and 84918 and 79074
FMP fluorescence trace (Figure 4E) (SNAT2; concentration 3, time -15): 38941 and 47276 and 43868
FMP fluorescence trace (Figure 4E) (SNAT2; concentration 3, time -30): 38992 and 47580 and 43779
FMP fluorescence trace (Figure 4E) (SNAT2; concentration 10, time 0): 38026 and 47522 and 43301
FMP fluorescence trace (Figure 4E) (SNAT2; concentration 10, time 15): 77709 and 92080 and 85399
FMP fluorescence trace (Figure 4E) (SNAT2; concentration 10, time 30): 81193 and 96439 and 89928
FMP fluorescence trace (Figure 4E) (SNAT2; concentration 10, time 120): 89522 and 106429 and 98327
FMP fluorescence trace (Figure 4E) (SNAT2; concentration 10, time 135): 89958 and 106947 and 98853
FMP fluorescence trace (Figure 4E) (SNAT2; concentration 10, time -15): 38236 and 47973 and 43260
FMP fluorescence trace (Figure 4E) (SNAT2; concentration 10, time -30): 38420 and 48280 and 43303
FMP fluorescence trace (Figure 4E) (SNAT2; concentration 30, time 0): 34380 and 43442 and 39339
FMP fluorescence trace (Figure 4E) (SNAT2; concentration 30, time 15): 78102 and 91417 and 87667
FMP fluorescence trace (Figure 4E) (SNAT2; concentration 30, time 30): 82488 and 96970 and 91979
FMP fluorescence trace (Figure 4E) (SNAT2; concentration 30, time 120): 94607 and 112721 and 104458
FMP fluorescence trace (Figure 4E) (SNAT2; concentration 30, time 135): 94767 and 112903 and 104920
FMP fluorescence trace (Figure 4E) (SNAT2; concentration 30, time -15): 34399 and 43394 and 39108
FMP fluorescence trace (Figure 4E) (SNAT2; concentration 30, time -30): 34516 and 43482 and 39169

N[C@@H](CCC(=O)NO)C(=O)O [GHX, L-glutamic acid γ-monohydroxamate]
FMP fluorescence (SNAT1 and SNAT2 [1]; time 12, replicates 1-10): 15497 and 15187 and 15491 and 15990 and 16201 and 16210 and 15458 and 14591 and 15061
FMP fluorescence (SNAT1 and SNAT2 [1]; time 20, replicates 1-10): 20228 and 15609 and 15195 and 15756 and 16281 and 16254 and 16439 and 15610 and 14748 and 15258
FMP fluorescence (SNAT1 and SNAT2 [2]; time 12, replicates 1-10): 22680 and 24692 and 23914 and 30455 and 30240 and 24259 and 22517 and 22424 and 30730 and 20724
FMP fluorescence (SNAT1 and SNAT2 [2]; time 20, replicates 1-10): 22571 and 24791 and 24317 and 30484 and 30582 and 24624 and 22645 and 23055 and 30684 and 21238
